Here are results for two molecules from article PMC10138931.

Sequences of proteins named here, by UniProt entry; tags and fusion partners are left off. A change or cut given only in a name is not applied to a line headed by its entry.
UniProt P12956: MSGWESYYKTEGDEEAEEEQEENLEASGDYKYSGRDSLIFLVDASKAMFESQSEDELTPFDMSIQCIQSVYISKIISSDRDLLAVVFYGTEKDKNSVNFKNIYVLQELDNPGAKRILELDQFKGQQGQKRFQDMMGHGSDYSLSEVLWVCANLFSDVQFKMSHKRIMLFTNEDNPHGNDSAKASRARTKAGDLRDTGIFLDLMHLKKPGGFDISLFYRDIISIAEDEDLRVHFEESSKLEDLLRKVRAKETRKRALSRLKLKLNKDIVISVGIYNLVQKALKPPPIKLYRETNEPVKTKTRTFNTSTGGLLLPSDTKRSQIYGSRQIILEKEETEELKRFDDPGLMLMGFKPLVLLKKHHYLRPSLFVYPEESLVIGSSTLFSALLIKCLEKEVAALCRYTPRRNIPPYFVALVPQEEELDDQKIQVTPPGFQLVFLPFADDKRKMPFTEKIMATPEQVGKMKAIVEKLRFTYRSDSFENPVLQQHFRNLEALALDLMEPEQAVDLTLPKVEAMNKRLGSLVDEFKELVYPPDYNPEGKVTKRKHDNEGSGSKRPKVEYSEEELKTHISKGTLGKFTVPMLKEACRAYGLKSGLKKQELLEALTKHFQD

One assay has as its target Ku70 S155A-BioID2-HA (UniProt P12956). As to the kind of experiment: proximity labelling; BioID2 in Flp-In T-REx 293 stable cell lines; 8 h doxycycline (1 ug/mL), then 50 uM biotin for 24 h; biotinylated proteins identified by LC-ESI-MS/MS; three biological replicates; filtered against parental T-REx 293 and NLS-BioID2 controls and by SAINTexpress.
The target in a further assay is Ku70 S155D-BioID2-HA (UniProt P12956). The description is as above.

Results are given in words; binding and its absence hold for the method and conditions named. In cells and extracts the contact can be indirect. Here binding means that the protein was enriched with, or labelled near, the bait; the list need not be complete.

B1: NUDCD2 (protein, UniProt Q8WVJ2 1-157)
chain: MSAPFEERSGVVPCGTPWGQWYQTLEEVFIEVQVPPGTRAQDIQCGLQSRHVALSVGGREILKGKLFDSTIADEGTWTLEDRKMVRIVLTKTKRDAANCWTSLLESEYAADPWVQDQMQRKLTLERFQKENPGFDFSGAEISGNYTKGGPDFSNLEK
With B1, the binding result with Ku70 S155A-BioID2-HA was “binds”.

B2: Borealin (protein, UniProt Q53HL2 1-280)
chain: MAPRKGSSRVAKTNSLRRRKLASFLKDFDREVEIRIKQIESDRQNLLKEVDNLYNIEILRLPKALREMNWLDYFALGGNKQALEEAATADLDITEINKLTAEAIQTPLKSAKTRKVIQVDEMIVEEEEEEENERKNLQTARVKRCPPSKKRTQSIQGKGKGKRSSRANTVTPAVGRLEVSMVKPTPGLTPRFDSRVFKTPGLRTPAAGERIYNISGNGSPLADSKEIFLTVPVGGGESLRLLASDLQRHSIAQLDPEALGNIKKLSNRLAQICSSIRTHK
As for B2, in the assay with Ku70 S155D-BioID2-HA, the binding entry was “binds”.
